# According to patent US12527775B2 (priority 2020, dated 2026):
# The chains behind the UniProt entries cited, without tags or fusion partners.
# UniProt P28223, whole entry: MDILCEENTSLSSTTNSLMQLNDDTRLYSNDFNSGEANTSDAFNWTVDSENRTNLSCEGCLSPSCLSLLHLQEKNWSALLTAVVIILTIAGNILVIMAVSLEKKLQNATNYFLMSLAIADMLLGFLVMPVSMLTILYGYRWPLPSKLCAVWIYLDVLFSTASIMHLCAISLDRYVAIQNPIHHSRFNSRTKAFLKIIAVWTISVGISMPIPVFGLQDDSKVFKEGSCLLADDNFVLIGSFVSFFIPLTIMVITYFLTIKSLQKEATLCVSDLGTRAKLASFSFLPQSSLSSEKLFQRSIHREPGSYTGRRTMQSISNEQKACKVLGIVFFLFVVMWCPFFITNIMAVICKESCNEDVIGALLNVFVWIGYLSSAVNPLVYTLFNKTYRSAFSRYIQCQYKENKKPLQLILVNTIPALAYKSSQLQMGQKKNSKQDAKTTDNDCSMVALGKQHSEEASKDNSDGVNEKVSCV
# Structures were worked out from names or drawings and are uncertain.
# Biological target: human recombinant 5-HT2A receptor (Homo sapiens (Human), UniProt P28223)
# Details: read-out: h-5-HT2A Ki
compound,measurement,value
CC(C)COc1ccc(CNC(=O)N(Cc2cc[nH]n2)C2CCN(C)CC2)cc1,Ki,10 to 100 nM
